# Screen size: about 580,000 compounds; about 6,100 (1.1%) were called active. This list was built around the results that the source calls inconclusive (neither active nor inactive); the mix of calls is not that of the screen. Calls come from the whole dose curve; as a rule, active = well fitted inhibition curve with a large enough effect; inconclusive = small, poorly fitted or top-dose-only effect, or another doubt; inactive = no such curve, though single readings can be large or run the other way. Potencies of inconclusive entries are doubtful fits and often do not repeat.
# The chains behind the UniProt entries cited, without tags or fusion partners. Where a name states a change or a piece, a line headed by the entry shows the natural chain unless it says otherwise.
# UniProt P18054: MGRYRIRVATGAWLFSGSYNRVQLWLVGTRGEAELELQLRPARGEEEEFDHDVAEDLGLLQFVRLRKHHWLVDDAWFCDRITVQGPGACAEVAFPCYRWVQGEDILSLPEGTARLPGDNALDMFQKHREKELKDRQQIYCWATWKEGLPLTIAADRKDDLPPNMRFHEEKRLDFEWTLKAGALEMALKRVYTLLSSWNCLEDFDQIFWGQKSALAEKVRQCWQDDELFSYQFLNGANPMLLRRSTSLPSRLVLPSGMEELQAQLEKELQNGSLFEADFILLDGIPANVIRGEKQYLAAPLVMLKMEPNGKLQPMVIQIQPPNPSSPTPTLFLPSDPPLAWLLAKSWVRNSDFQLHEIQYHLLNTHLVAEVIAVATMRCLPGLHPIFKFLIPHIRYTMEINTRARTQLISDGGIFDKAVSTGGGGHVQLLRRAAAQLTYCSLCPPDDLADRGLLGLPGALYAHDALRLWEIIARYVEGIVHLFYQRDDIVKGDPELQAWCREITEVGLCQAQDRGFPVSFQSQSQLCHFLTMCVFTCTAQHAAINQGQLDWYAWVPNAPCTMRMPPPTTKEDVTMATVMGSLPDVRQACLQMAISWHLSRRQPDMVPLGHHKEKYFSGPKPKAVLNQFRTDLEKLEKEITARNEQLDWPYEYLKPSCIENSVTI
# Target: Polyunsaturated fatty acid lipoxygenase ALOX12 (Homo sapiens) (UniProt P18054)
# Test: Primary qHTS assay for inhibitors of human arachidonate 12S-lipoxygenase (ALOX12): Round 2
# Conditions: purified 12hLO, xylenol orange hydroperoxide absorbance; series mostly up to 108 µM
# Method in brief: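 Hydroperoxide product was detected by ferrous iron/xylenol orange as the 573 to 405 nm absorbance ratio. Arachidonic acid at 40 uM (final) was turned over for 30 min at room temperature by 150 nM human 12hLO, pH 7.0 Hepes buffer, after 15 min compound preincubation.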
# Potency is the fitted concentration of half-maximal effect.
row,SMILES,Potency
1,CCS(=O)(=O)N1CCCN(S(=O)(=O)c2ccccc2)CCC(=O)NCC1,inactive
2,CC(C)COc1nc2ccccc2nc1N1CCN(C)CC1,"inconclusive: 126 µM [inhibitor, partial curve, poor fit]"
3,COc1ccc(S(=O)(=O)Nc2ccc(Nc3cc(N4CCCCC4)nc(C)n3)cc2)cc1,"inconclusive: 50.1 µM [inhibitor, partial curve, poor fit]"
4,Cc1ccccc1NC(=O)c1sc2nc3c(cc2c1N)CCCC3,"inconclusive: 20 µM [inhibitor, partial curve]"
5,C#CCCCCCCCCCCCc1ccco1,"inconclusive: 100 µM [inhibitor, partial curve, poor fit]"
6,Fc1cccc(Cc2c(C3CCCCC3)nc3c4ccccc4ccn23)c1,"inconclusive: 25.1 µM [inhibitor, partial curve, poor fit]"
7,COc1cc(C=O)cc(Cl)c1OCc1ccc(C(=O)O)cc1,inactive
8,N#Cc1ccc(C(=O)N2CCC3CC2c2cc(-c4ccccc4)ccc23)cc1 (stereo not given),inactive
9,CC(=O)N1CCC(N2C[C@@H]3OCC(=O)N(Cc4ccccc4)[C@@H]3C2)CC1,"inconclusive: 100 µM [inhibitor, partial curve]"
10,O=C1NCc2ccccc2CC12CCN(Cc1ccc(F)cc1F)C2 (stereo not given),"inconclusive: 70.8 µM [inhibitor, single point]"
11,CC(C)Oc1cccc(C(=O)NC(=S)Nc2ccc3c4c(cccc24)CC3)c1,active: 17.8 µM
12,COCCN1CCN(C(=O)c2cnn(-c3nccc(-c4ccccc4F)n3)c2-c2ccco2)CC1,"inconclusive: 44.7 µM [inhibitor, partial curve, poor fit]"
13,CN(CCNC(=O)NC1CCC(C(F)(F)F)CC1)Cc1ccccc1 (stereo not given),"inconclusive: 39.8 µM [inhibitor, partial curve]"
14,CCN(C(=O)c1oc2ccc(S(=O)(=O)N3CCCCCC3)cc2c1C)c1ccccc1,inactive
15,CC(=O)c1c(C)[nH]c(C(=O)CSc2nnc(C)s2)c1C,"inconclusive: 44.7 µM [inhibitor, partial curve, poor fit]"
16,CC(=O)O[C@@H]1C[C@H]2C(C)=C[C@H]3OC(=O)[C@@H](C)[C@H]3C[C@H]2[C@]1(C)O,inactive
17,COC(c1ccc(Cl)cc1)(c1ccc(Cl)cc1)C(Oc1nc(C)cc(C)n1)C(=O)O (stereo not given),inactive
18,CNC(=S)N/N=C/c1cn(Cc2ccc(C)cc2)c2ccccc12,"inconclusive: 39.8 µM [inhibitor, partial curve, poor fit]"
19,COc1ccc(-c2nn(-c3ccccc3)cc2CO)cc1,inactive
20,COc1ccc(-n2nc(C3CCN(Cc4cccnc4)CC3)[nH]c2=O)cc1,"inconclusive: 35.5 µM [inhibitor, partial curve]"
21,O=C(O)c1cc(-c2c[nH]c3ccccc23)nc2ccc3ccccc3c12,"inconclusive: 89.1 µM [inhibitor, partial curve, poor fit]"
22,CCCC#Cc1cnc2c(c1)C(=O)N([C@H](C)CO)C[C@@H](C)[C@H](CN(C)S(=O)(=O)c1cccc(OC)c1)O2,"inconclusive: 39.8 µM [inhibitor, partial curve, poor fit]"

# As a short view, part of the list above.
row,SMILES,Potency
3,COc1ccc(S(=O)(=O)Nc2ccc(Nc3cc(N4CCCCC4)nc(C)n3)cc2)cc1,"inconclusive: 50.1 µM [inhibitor, partial curve, poor fit]"
4,Cc1ccccc1NC(=O)c1sc2nc3c(cc2c1N)CCCC3,"inconclusive: 20 µM [inhibitor, partial curve]"
5,C#CCCCCCCCCCCCc1ccco1,"inconclusive: 100 µM [inhibitor, partial curve, poor fit]"
6,Fc1cccc(Cc2c(C3CCCCC3)nc3c4ccccc4ccn23)c1,"inconclusive: 25.1 µM [inhibitor, partial curve, poor fit]"

# Next results.

row,SMILES,Potency
1,O=C(Nc1ccccn1)c1ccccc1,inactive
2,O=C(CSc1nc2ccccc2c(=O)n1CCCN1CCOCC1)Nc1ccc(Br)cc1,"inconclusive: 100 µM [inhibitor, single point]"
3,Cn1c2c(c(=O)[nH]c1=O)C(c1cccc(O)c1)C1=C(N2)c2ccccc2C1=O (stereo not given),"inconclusive: 50.1 µM [inhibitor, partial curve, poor fit]"
4,COC(=O)C1=C(C)N(Cc2cccc(C(F)(F)F)c2)C(=NCc2ccccc2C(F)(F)F)NC1c1ccc(Cl)cc1 (stereo not given),"inconclusive: 50.1 µM [inhibitor, partial curve, poor fit]"
5,Cc1ccc(-n2ncc(C(=O)NCCN3CCc4ccccc4C3)c2C2CCN(C(=O)OC(C)(C)C)CC2)cc1,inactive
6,CCOC(=O)c1cc(S(=O)(=O)N2CCN(c3ccc(OC)cc3)CC2)[nH]n1,"inconclusive: 44.7 µM [inhibitor, single point]"
7,Cc1cccc(N2C(=O)CN=C2Nc2nc(C)cc(C)n2)c1,"inconclusive: 0.355 µM [inhibitor, full curve, poor fit]"
8,C[C@H](NC(=O)c1nc[nH]c1C(=O)N(C)CCO)c1ccccc1,"inconclusive: 2.82 µM [inhibitor, full curve, poor fit]"
9,CC(C)N1C(=O)/C(=C\c2nc3ccccc3c(=O)[nH]2)c2ccccc21,"inconclusive: 70.8 µM [inhibitor, partial curve, poor fit]"
10,COc1ccc(-c2cc(C(=O)NCC3CC3)c3c(C4CCNC4)noc3n2)cc1 (stereo not given),"inconclusive: 7.94 µM [inhibitor, full curve, poor fit]"
11,COc1cccc(-c2nc(C3CC(=O)N(C4CCCCC4)C3)no2)c1 (stereo not given),inactive
12,COc1ccc(-c2csc3ncn(-c4ccccc4)c(=O)c23)cc1OC,inactive
13,COc1ccc(CNC(=O)C[C@@H]2O[C@H](CNC(=O)c3ccc(C)cc3)[C@@H](O)[C@H]2O)cc1,"inconclusive: 28.2 µM [inhibitor, full curve]"
14,Cc1ccc(C)c(C(=O)N2CCC3(CC2)N=C(c2ccc(Cl)cc2)NO3)c1,"inconclusive: 20 µM [inhibitor, full curve, poor fit]"
15,O=C(CNc1n[nH]c(=O)[nH]c1=O)N/N=C/C1CC=CCC1 (stereo not given),"inconclusive: 15.8 µM [inhibitor, partial curve, poor fit]"
16,Cc1ccc(Nc2c(-c3ccc(N4CCOCC4)cc3)nc3ncccn23)cc1,"inconclusive: 100 µM [inhibitor, single point]"
17,CC(=O)Nc1ccc(-c2csc(Nc3ccc(O)c(C(=O)O)c3)n2)cc1,active: 39.8 µM
18,CC(C)(C)c1cc(C(=O)OCCN2CCCCC2)cc(C(C)(C)C)c1,active: 7.08 µM
19,COc1ccc(N2CCN(C(=O)c3nc(SC)ncc3Cl)CC2)cc1,inactive
20,COc1cc(C(=O)Sc2ccc(Cl)cc2)cc(OC)c1OC,inactive
21,Cc1ccc2nc(C(C)(C)C)c(Cc3ccccc3C(F)(F)F)n2c1,"inconclusive: 31.6 µM [inhibitor, single point]"
22,O=S(=O)(Nc1nc2ccccc2nc1N1CCN(c2ncccn2)CC1)c1ccccc1,inactive

row,SMILES,Potency
1,COc1ccc(/C=N/Nc2ccccc2C(=O)O)cc1Cn1cc([N+](=O)[O-])cn1,"inconclusive: 100 µM [inhibitor, single point]"
2,N#Cc1ccc(Oc2ccc(S(=O)(=O)N3CCCC3)cn2)cc1,"inconclusive: 35.5 µM [inhibitor, single point]"
3,CCc1ccc2nc(N(CCCN(C)C)C(=O)c3ccc(C(=O)c4ccccc4)cc3)sc2c1,"inconclusive: 50.1 µM [inhibitor, partial curve, poor fit]"
4,O=C(OCc1ccccc1)c1ccc(NCc2cc(O)ccc2O)cc1,"inconclusive: 3.98 µM [inhibitor, full curve, poor fit]"
5,COC(=O)c1cc2c(ccn2-c2ccc(F)cc2)n1CC(=O)C(C)(C)C,inactive
6,Cc1csc(=O)n1CC(=O)OCC(=O)N(CC(C)C)c1c(N)n(Cc2ccccc2)c(=O)[nH]c1=O,"inconclusive: 2.82 µM [inhibitor, full curve, poor fit]"
7,C=CCNc1nc2cc(-c3cccc(Cl)c3)sc2c(=O)n1C,"inconclusive: 112 µM [inhibitor, single point]"
8,CCc1ccc(S(=O)(=O)N2CCN(c3ncccn3)CC2)cc1,"inconclusive: 39.8 µM [inhibitor, partial curve, poor fit]"
9,CC(C)(C)NC(=O)NC(=O)Cn1c(=O)c2c(ncn2Cc2ccccc2)n(Cc2ccccc2)c1=O,"inconclusive: 112 µM [inhibitor, single point]"
10,CC(=O)N(C)/C=C1\Sc2ccccc2C1=O,active: 35.5 µM
11,CCN1CCN(CC(=O)Nc2cc(C)on2)CC1,"inconclusive: 0.1 µM [inhibitor, full curve, poor fit]"
12,O=C(Cc1cccc(Cl)c1)N1CCC2(CC1)CN[S+](=O)([O-])c1cccnc1O2,"inconclusive: 63.1 µM [inhibitor, single point]"
13,COc1ccc(C(C)C)cc1S(=O)(=O)NCCc1c(C)[nH]c2ccc(C)cc12,"inconclusive: 89.1 µM [inhibitor, partial curve, poor fit]"
14,COc1ccc(/C=C/C(=O)N(C(C)C)C(C)C)cc1Br,"inconclusive: 89.1 µM [inhibitor, partial curve, poor fit]"
15,Cc1ccccc1NC(=O)CN1C(=O)NC2(CCOCC2)C1=O,"inconclusive: 7.94 µM [inhibitor, full curve, poor fit]"
16,CC(=O)Nc1ccc(C(=O)OCC(=O)NCc2ccccc2)cc1,inactive
17,Cc1cc(-c2csc(NC(=O)c3ccc(C#N)cc3)n2)c(C)n1Cc1ccco1,"inconclusive: 39.8 µM [inhibitor, partial curve, poor fit]"
18,O=C1Nc2ccccc2CC12CCN(Cc1cncs1)C2 (stereo not given),"inconclusive: 31.6 µM [inhibitor, full curve]"
19,CCn1c(SCC(=O)NC(=O)NC(C)(C)C)nc2ccccc21,inactive
20,CCOC(=O)C(=O)Nc1sc(C(=O)N(CC)CC)c(C)c1C#N,"inconclusive: 3.16 µM [inhibitor, full curve, poor fit]"
21,COCCN(Cc1cn[nH]c1-c1ccc2cc(OC)ccc2c1)C(C)C,inactive

# From PubChem BioAssay AID1671190 (National Center for Advancing Translational Sciences (NCATS), 2021)
